# Patent US20070275083A1
# Amino acid sequences for entries named in this document (tags omitted). A change or cut given only in a name is not applied to a line headed by its entry.
# UniProt Q5VYX0: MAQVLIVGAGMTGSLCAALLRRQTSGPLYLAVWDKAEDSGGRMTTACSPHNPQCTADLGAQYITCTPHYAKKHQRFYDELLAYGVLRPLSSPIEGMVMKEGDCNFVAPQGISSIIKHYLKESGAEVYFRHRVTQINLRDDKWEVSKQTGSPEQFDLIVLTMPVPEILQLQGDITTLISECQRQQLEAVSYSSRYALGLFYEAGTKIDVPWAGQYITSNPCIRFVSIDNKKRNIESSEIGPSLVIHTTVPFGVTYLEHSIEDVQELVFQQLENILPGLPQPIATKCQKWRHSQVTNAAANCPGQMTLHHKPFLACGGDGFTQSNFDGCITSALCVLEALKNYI
# No constants are given. Whether binding was seen depends on the method and setting. Some results given as binding are weak or reduced against the parent protein; the word gives no strength.
# Target: human renalase (Monoamine Oxidase C), endogenous protein in human plasma, urine, kidney and heart (human) (UniProt Q5VYX0)
# Test: gel image of renalase affinity purified from human urine
binder,measurement,value
"human renalase (Monoamine Oxidase C), endogenous protein in human plasma, urine, kidney and heart (enzyme) AALLRRQTSGPLYLAVWDKADDSGGRMTTACSPHNPQCTADLGAQYITCTPHYAKKHQRFYDELLAYGVLRPLSSPIEGMVMKEGDCNFVAPQGISSIIKHYLKESGAEVYFRHRVTQINLRDDKWEVSKQTGSPEQFDLIVLTMPVPEILQLQGDITTLISECQRQQLEAVSYSSRYALGLFYEAGTKIDVPWAGQYITSNPCIRFVSIDNKKRNIESSEIGPSLVIHTTVPFGVTYLEHSIEDVQELVFQQLENILPGLPQPIATKCQKWRHSQVTNAAANCPGQMTLHHKPFLACGGDGFTQSNFDGCITSALCVLEALKNYI",binding,binds
